Hit rate of the full screen: of about 220,000 compounds, about 770 (0.35%) were called active. This list was built around the results that the source calls inconclusive (neither active nor inactive); the mix of calls is not that of the screen. No stated cut-off is given here; in the data, active means binding response below about 49% or above about 150%; inconclusive means no clear call, values can overlap the other calls; inactive means in between.
biological target: Guanine nucleotide-binding protein G(o) subunit alpha (Homo sapiens) (UniProt P09471); assay: RGS7-Galphao binding modulators, primary screen, biochemical, multiplexed bead flow cytometry (AID 1439); details: at 10 µM, actives lie on both sides;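 further: fluorescent Galphao held in activated GDP-AlF4 state binding bead-coupled RGS7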

By UniProt entry, the sequences of proteins in these tests, tags left out.
UniProt P09471, whole entry, looked up: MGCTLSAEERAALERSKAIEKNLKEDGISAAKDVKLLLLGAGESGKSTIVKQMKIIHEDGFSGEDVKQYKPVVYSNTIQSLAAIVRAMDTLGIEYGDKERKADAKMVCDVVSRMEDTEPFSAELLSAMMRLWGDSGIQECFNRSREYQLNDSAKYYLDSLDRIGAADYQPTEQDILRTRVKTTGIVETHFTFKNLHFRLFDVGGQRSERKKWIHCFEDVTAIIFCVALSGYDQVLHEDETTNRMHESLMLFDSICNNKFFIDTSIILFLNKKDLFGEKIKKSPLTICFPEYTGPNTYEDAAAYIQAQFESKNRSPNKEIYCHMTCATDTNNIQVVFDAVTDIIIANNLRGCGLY

| SMILES | binding response (% of control) |
| --- | --- |
| COc1cc(-c2cc(=O)c3c(O)c(OC)c(OC)cc3o2)cc(OC)c1O | inconclusive: 98.7% |
| O=C(CSc1ncccc1C(=O)O)NC12CC3CC(CC(C3)C1)C2 | inconclusive: 84.2% |
| CCOC(=O)c1cnc2c(cnn2C)c1NCCCn1ccnc1 | inconclusive: 118% |
| O=c1[nH]c(CN2CCOCC2)nc2ccccc12 | inactive: 93.5% |
| COCCCN=Cc1c(C)[nH]n(-c2ccc(Br)cc2Br)c1=O | inactive: 97.9% |
| Oc1c(Cl)cc(Cl)cc1/C=N/c1nc(-c2ccc(Cl)cc2)cs1 | inconclusive: 0.68% |
| CCOC(=O)c1[nH]c(C)c(/C(O)=C2\C(=O)C(=O)N(CCN3CCOCC3)C2c2ccco2)c1C (stereo not drawn) | inconclusive: 114% |
| O=C(O)C1CC=CCC1C(=O)Nc1cccc([N+](=O)[O-])c1 (stereo not drawn) | inconclusive: 89.2% |
| CC(=O)c1ccc(N2CCN(C(=O)/C=C/c3ccc4ccccc4n3)CC2)cc1 | inconclusive: 89.7% |
| C[N+]1(CC2COC3(CCCCC3)O2)CCCCC1 (stereo not drawn) | inconclusive: 98.4% |
| Cc1ccc(C(=O)N2C(=O)C(c3ccccc3)Oc3ccccc32)cc1 (stereo not drawn) | inconclusive: 108% |
| O=C(c1ccc(F)cc1F)N1CCCN(c2nc(-c3ccccc3)ns2)CC1 | inconclusive: 108% |
| Clc1ccc(-c2nnc(-c3cccc4ccccc34)o2)cc1Cl | inconclusive: 106% |
| COc1ccc(-n2c(SCC(=O)Nc3cccc4ccccc34)nc(O)cc2=O)cc1 | inconclusive: 87.9% |
| CC(=O)N(CCC(c1ccco1)C(C)C)Cc1ccc(Cl)cc1 (stereo not drawn) | inconclusive: 128% |
| O=C(CCCOc1ccc(Cl)cc1Cl)Nc1ncccn1 | inconclusive: 110% |
| CCOC(=O)c1cc(C#N)c(SCC(N)=O)[nH]c1=O | inconclusive: 64.7% |
| CN(/N=C/c1ccccc1Cl)c1ncc(Cl)cc1C(F)(F)F | inconclusive: 108% |
| Cc1cccc(-n2nnnc2SCC(=O)N(CC(C)C)c2c(N)n(CC(C)C)c(=O)[nH]c2=O)c1 | inconclusive: 94% |
| COC(=O)c1nnn(-c2cc(Cl)cc(Cl)c2)c1C(=O)OC | inconclusive: 26% |
| O=C(CNc1cccc(S(=O)(=O)N2CCOCC2)c1)N1CCc2ccccc21 | inconclusive: 137% |
| COC(=O)Nc1ccc(S(=O)(=O)NC2CCS(=O)(=O)C2)cc1 (stereo not drawn) | inconclusive: 117% |

| SMILES | binding response (% of control) |
| --- | --- |
| O=C1NC(=O)/C(=C\c2ccc(OCc3cccc(C(=O)O)c3)c(Cl)c2)N1 | inactive: 93.3% |
| Cc1ccc(/C=N/NC(=O)C[n+]2ccccc2)s1 | inconclusive: 91.3% |
| CN1CCc2c(sc3c2C(=O)NC(c2ccc(-c4ccc(Cl)cc4)o2)N3)C1 (stereo not drawn) | inconclusive: 72.2% |
| COCc1cc(C)n(CC(=O)Nc2cccc(C)c2)c(=O)c1C#N | inconclusive: 104% |
| CCN(CC)C(=O)CSC(Nc1ccc(F)cc1)=C(C#N)C#N | inconclusive: 86.2% |
| CC(=O)OCC(=O)Nc1ccc(Cl)cc1Cl | inactive: 114% |
| FC(F)(F)c1nc2ccccc2[nH]1 | inconclusive: 117% |
| Clc1ccc(SCNc2ccccc2Cl)cc1 | inconclusive: 78.6% |
| CCOC(=O)Cn1cc(/C=N/N2C(=O)C3C4C=CC(C4)C3C2=O)c2ccccc21 (stereo not drawn) | inconclusive: 99.1% |
| COc1ccc(S(=O)(=O)N2CCCOC2CNC(=O)C(=O)NCCCn2ccnc2)cc1 (stereo not drawn) | inactive: 110% |
| O=C(CSc1nnc(-c2cccs2)n1CC1CCCO1)N1CCCC1 (stereo not drawn) | inconclusive: 66.3% |
| Cn1cc([N+](=O)[O-])c(C(=O)NCc2cc3cc(Cl)ccc3[nH]2)n1 | inactive: 101% |
| Cc1cccc(NC(=O)c2nc[nH]c2C(=O)N[C@@H](Cc2ccccc2)C(=O)OCc2ccccc2)c1 | inconclusive: 93% |
| O=C1COc2ccc(C(=O)COC(=O)CNC(=O)c3ccco3)cc2N1 | inactive: 101% |
| O=C(NCC1CCN(Cc2ccccc2Cl)CC1)Nc1cccc(Cl)c1 | inconclusive: 109% |
| O=C(Nc1ccc(Br)cn1)c1cccc2c1-c1ccccc1C2=O | inactive: 97.5% |
| Cc1noc(C)c1COC(=O)COc1ccc(C#N)cc1 | inconclusive: 113% |
| Nc1cc(-c2ccccc2)ccc1O | inconclusive: 171% |
| CC(=O)c1cccc(NC(=O)N2CCC(NC(=O)C34CC5CC(CC(C5)C3)C4)CC2)c1 | inactive: 103% |
| Cc1cc(-c2nnc(CCC(=O)N(C)C(C)c3cccs3)o2)no1 (stereo not drawn) | inconclusive: 95.8% |
| Nc1nonc1C(=O)N/N=C/c1ccc(Br)o1 | inconclusive: 244% |
| CC(Nc1c([N+](=O)[O-])c(=O)oc2ccccc12)c1ccccc1 (stereo not drawn) | inconclusive: 117% |

3 entries drawn at random from those above, as already listed:

| SMILES | binding response (% of control) |
| --- | --- |
| Cn1cc([N+](=O)[O-])c(C(=O)NCc2cc3cc(Cl)ccc3[nH]2)n1 | inactive: 101% |
| O=c1[nH]c(CN2CCOCC2)nc2ccccc12 | inactive: 93.5% |
| Cc1cccc(-n2nnnc2SCC(=O)N(CC(C)C)c2c(N)n(CC(C)C)c(=O)[nH]c2=O)c1 | inconclusive: 94% |

Entries listed so far containing an aryl methoxy group, in the order listed:

| SMILES | binding response (% of control) |
| --- | --- |
| COc1cc(-c2cc(=O)c3c(O)c(OC)c(OC)cc3o2)cc(OC)c1O | inconclusive: 98.7% |
| COc1ccc(-n2c(SCC(=O)Nc3cccc4ccccc34)nc(O)cc2=O)cc1 | inconclusive: 87.9% |
| COc1ccc(S(=O)(=O)N2CCCOC2CNC(=O)C(=O)NCCCn2ccnc2)cc1 (stereo not drawn) | inactive: 110% |

Later entries.

| SMILES | binding response (% of control) |
| --- | --- |
| COc1ccc(C2CC(c3ccc([N+](=O)[O-])cc3)=NN2C(=O)c2ccccc2)cc1OC (stereo not drawn) | inconclusive: 101% |
| Cc1cc(C)n(CCNCc2c(C(=O)N3C[C@@H](C)O[C@@H](C)C3)nc3ccc(Cl)cn23)n1 | inactive: 98.3% |
| COCCNc1ccc(-c2nn(C)c(=O)c3ccccc23)cc1[N+](=O)[O-] | inconclusive: 107% |
| Cc1c(O)cc2c(c1O)C(=O)CC(c1ccccc1)O2 (stereo not drawn) | inconclusive: 58.3% |
| CC(=O)Nc1cccc(NC(=O)C2CC(=O)N(c3ccc(C)cc3)C2)c1 (stereo not drawn) | inactive: 108% |
| CCOc1ccc(C2c3[nH]c4ccccc4c3CCN2CCCn2cccn2)cc1 (stereo not drawn) | inactive: 107% |
| Cc1cc(O)c(C(C)C)cc1C1(c2cc(C(C)C)c(O)cc2C)OC(=O)c2ccccc21 | inconclusive: 128% |
| COc1ccc(C2CC(=O)C3=C(C2)Nc2ccccc2N(C(=O)CCC(=O)O)C3c2ccc(F)cc2)cc1 (stereo not drawn) | inconclusive: 113% |
| O=C1N=NC2=C1c1c3ccccc3c(O)n1CC2 | inconclusive: 113% |
| COc1ccc([N+](=O)[O-])cc1N(CC(=O)NC(C(C)C)C(C)C)S(C)(=O)=O | inactive: 104% |
| Nc1nnc(CC(=O)N/N=C/c2ccccc2OCc2ccc(F)cc2)s1 | inconclusive: 105% |
| CSc1nnc(C(C)(C)C)c(=O)n1/N=C/c1ccc(Cl)cc1 | inconclusive: 95.6% |
| CC(C)N(C(=O)COC(=O)c1ccccc1C(=O)c1ccc(Cl)c([N+](=O)[O-])c1)C(C)C | inconclusive: 119% |
| O=S(=O)(Nc1ccc(-n2cnnn2)cc1)c1ccc(F)c(F)c1F | inconclusive: -452% |
| CC1=NNC(=O)C1CC(=O)N/N=C/C=C/c1ccccc1 (stereo not drawn) | inconclusive: 95.4% |
| Cc1cc2ncn(/N=C/c3ccc([N+](=O)[O-])o3)c2cc1C | inactive: 105% |
| CN(c1ccccc1)c1ccc(/C=c2\s/c(=C(/C#N)C(=O)C(C)(C)C)n(Cc3ccco3)c2=O)cc1 | active: 421% [activator] |
| O=C(O)CSc1cc(C(=O)c2ccccc2O)cn2c(=O)c3c4c(sc3nc12)CCCC4 | inconclusive: 118% |
| O=C(O)c1ccccc1-c1ccccc1C(=O)Nc1nc2ccccc2s1 | inconclusive: -582% |
| Cc1c(N2C(=O)/C(=C\c3ccccc3O)SC2=S)c(=O)n(-c2ccccc2)n1C | inconclusive: 100% |
| COc1ccc(NC(C)=O)cc1S(=O)(=O)NC(Cc1ccccc1)C(=O)O (stereo not drawn) | inconclusive: 102% |
| Cc1ccc(/C=C/C(=O)O)cc1S(=O)(=O)N(CCO)CCO | inactive: 96.9% |

| SMILES | binding response (% of control) |
| --- | --- |
| Cc1n[nH]c(C)c1Sc1ccccc1[N+](=O)[O-] | inactive: 95.3% |
| Cc1ccc(Cl)cc1N1CCN(C(=O)Cc2c(C(=O)O)[nH]c3ccc(Cl)cc23)CC1 | inconclusive: 89.5% |
| N#CC1=C(N)N(c2ccc(F)cc2)C2=C(C1c1ccc(O)cc1)S(=O)(=O)CC2 (stereo not drawn) | inactive: 98.1% |
| CCN(CC)C(=O)Oc1ccc(Cl)c2cccnc12 | inconclusive: 106% |
| CCC1=NN2C(=N)/C(=C\c3ccc(OCc4cc(=O)n5nc(CC)sc5n4)c(OC)c3)C(=O)N=C2S1 | inconclusive: 52.7% |
| Cc1ccccc1CSc1nnc(-c2ccncc2)o1 | inconclusive: 116% |
| COc1cccc(N2CCN(C(=S)NCc3ccco3)CC2)c1 | inactive: 92.4% |
| COc1ccc(C2CC23N=C(c2ccccc2)OC3=O)cc1 (stereo not drawn) | inactive: 86.4% |
| N#CCCN(Cc1cccnc1)C(=S)NC(=O)C1CC1 | inactive: 106% |
| CC(=O)c1cnn(-c2c(Cl)cc(Cl)cc2Cl)c1C | inconclusive: 92.1% |
| O=C1CCCCCN1Cc1nnc(SCc2nc3ccccc3s2)n1-c1ccccn1 | inactive: 106% |
| CC(C)N1CCc2c(sc(NC(=O)c3nc4ccccc4s3)c2C(N)=O)C1 | inactive: 101% |
| Cc1ccc(-c2ccc(=O)n(CC(=O)NCc3ccc(F)cc3)n2)cc1 | inactive: 96.7% |
| COc1ccc(/C(C)=N/NC(=O)CNC(=O)C2COc3ccccc3O2)c(OC)c1 (stereo not drawn) | inconclusive: 97% |
| C/C(=N\NC(=O)CC(C)C)c1c(C(F)(F)F)[nH]n(-c2nc3ccccc3s2)c1=O | inconclusive: 92.5% |
| COC(=O)c1cccc(NC(=S)Nc2ccccc2Cl)c1 | inconclusive: 125% |
| O=C(OCC(=O)N1CCCCCC1)c1ccc([N+](=O)[O-])cc1Cl | inconclusive: 99.8% |
| COc1ccc(NC(=O)CCN2CCN(S(=O)(=O)c3ccc(OC)cc3)CC2)cc1 | inactive: 96.8% |
| O=S(=O)(NCc1ccc(Cl)cc1)c1cccc2cccnc12 | inconclusive: 80.3% |
| COc1ccc(/C(C)=N/Nc2ccccc2Cl)c(O)c1 | inconclusive: 122% |
| COc1ccc(NC(=O)CC2C(=O)N(c3cccc(OC)c3)C(=O)N2CCC(C)C)cc1 (stereo not drawn) | inactive: 96.3% |
| Cc1nccc(-c2sc(-c3cccs3)nc2C)n1 | inconclusive: 103% |

Source: PubChem BioAssay AID1439 (NMMLSC, 2008)
